Experimental data taken from PubChem BioAssay AID540276 (National Center for Advancing Translational Sciences (NCATS), 2011).
Several values for one entry are separate records, joined by “and”; a condition that tells them apart may be missing. Identical values can stand only once. About 5,400 (1.8%) of roughly 300,000 compounds were called active. The shares of active, inactive and inconclusive entries below differ from those in the screen. Calls follow the shape of the full dose curve; tested in HEK293 cells. Potencies beside an inconclusive call are fits to weak or partial responses and may not hold up.
Potency is read from the fitted curve at half-maximal effect.

Experiment: qHTS for inhibitors of binding or entry into cells for Marburg Virus
Details: Marburg virus pseudotyped entry inhibition, cell reporter; series mostly up to 37.8 µM
With COc1ccc2c(c1)N(C(=O)CN1C(=O)C3CCCCC3C1=O)C(C)(C)C=C2C (stereo not drawn) the Potency was “inactive”. For CC(C)c1ccc(NC(=O)c2snc3ccc(Cl)cc23)cc1, the Potency was inconclusive: 25.1 µM [inhibitor, single point]. In the case of CNC(=O)c1cc(C(=O)c2ccc(C(F)(F)F)cc2)c[nH]1, the Potency is reported as “inactive”. In the case of CN(Cc1ccccc1)S(=O)(=O)c1ccc(NC(=S)NC(=O)C2CCCC2)cc1, the Potency is reported as inconclusive: 2.59 µM [inhibitor, full curve, poor fit]. With Cc1ccccc1C(=O)Nc1ccc(S(=O)(=O)N2CCCC2)cc1 the Potency was inconclusive: 7.94 µM [inhibitor, partial curve, poor fit]. In the case of Cc1cccc(C)c1NC(=O)c1cccn(Cc2ccc3c(c2)OC(F)(F)O3)c1=O, the Potency is reported as inconclusive: 29.1 µM [inhibitor, single point]. With CC(=O)c1ccc(NC(=O)C[n+]2ccc(N(C)C)cc2)cc1 the Potency was inconclusive: 1.26 µM [activator, single point]. With O=C(O)c1ccc(N2Cc3ccccc3C2)cc1O the Potency was “inactive”. For CC(CCN1CCCc2nc(C)c(C)cc21)=NOC[C@@H](C)[C@H](OCc1ccccc1)C(C)C, the Potency was “inactive”. In the case of CC(C)(C)C(=O)N1CCN(c2ccc(NC(=O)c3ccco3)cc2)CC1, the Potency is reported as inconclusive: 10 µM [activator, partial curve, poor fit]. For Nc1cc(=O)[nH]c(SCC(=O)N2CCN(S(=O)(=O)c3ccc4ccccc4c3)CC2)n1, the Potency was inconclusive: 31.6 µM [activator, single point]. For COCCN(CCOC)C(=S)Nc1ccccc1Cl, the Potency was “inactive”. In the case of C=CCNS(=O)(=O)c1ccc(C(=O)OCc2cc(=O)oc3cc(OC)ccc23)cc1, the Potency is reported as inconclusive: 32.6 µM [inhibitor, single point]. With CC(c1ccccc1)n1c(-c2cccs2)nc2c(c(=O)c3ccccc3n2C)c1=O (stereo not drawn) the Potency was “inactive”. With O=C(/C=C/c1ccc2c(c1)OCO2)Nc1c(C(=O)O)[nH]c2ccccc12 the Potency was inconclusive: 3.55 µM [inhibitor, full curve]. In the case of CCNC(=S)SCCOc1ccccc1C, the Potency is reported as inconclusive: 2.82 µM [inhibitor, single point]. With CCc1cc2c(N3CCN(c4ccccc4)CC3)ncnc2s1 the Potency was inconclusive: 31.6 µM [inhibitor, single point]. In the case of Fc1ccc(Nc2nc(N3CCOCC3)c3ccccc3n2)cc1, the Potency is reported as active: 15.8 µM. In the case of Cc1n[nH]c(=O)n1-c1ccc(OCc2ccccc2)cc1, the Potency is reported as inconclusive: 5.01 µM [activator, partial curve, poor fit]. For Cc1ccc(NC(=O)c2cc([N+](=O)[O-])ccc2N2CCCC2)cc1, the Potency was inconclusive: 3.55 µM [inhibitor, partial curve, poor fit]. For COc1ccc(C(=O)CC(=O)C(=O)Nc2ccc(C)c(C)c2)cc1, the Potency was inconclusive: 6.31 µM [activator, single point]. With FC(F)Oc1ccc(NC(=S)NC2CCSc3ccccc32)cc1 (stereo not drawn) the Potency was “inactive”. With CCNCCOC(c1ccccc1)c1ccccc1 the Potency was inconclusive: 13 µM [inhibitor, partial curve, poor fit]. For O=CNc1ccc(OP(=O)(Oc2ccccc2)Oc2ccccc2)cc1, the Potency was inconclusive: 15.8 µM [inhibitor, single point]. For C/C(N)=C(/C#N)C(=O)CSc1nnc(SCc2ccc(Cl)cc2)s1, the Potency was inconclusive: 5.62 µM [inhibitor, partial curve, poor fit] and inconclusive: 11.2 µM [inhibitor, partial curve, poor fit]. In the case of CCCN1C(=O)CC(C(=O)OC)=C1C, the Potency is reported as inconclusive: 35.5 µM [activator, single point]. For COc1cc(C2C=C(Nc3ccccc3)C(=O)N2c2ccccc2)ccc1O (stereo not drawn), the Potency was “inactive”. With COc1ccc(S(=O)(=O)N2CCC(C(=O)N3CCCCC3)CC2)cc1OC the Potency was inconclusive: 1.26 µM [inhibitor, partial curve, poor fit]. With CN(C)[C@H]1C(=O)C(C(=O)NCN2CCCC2)=C(O)[C@]2(O)C(=O)C3=C(O)c4c(O)cccc4[C@](C)(O)[C@H]3C[C@H]12 the Potency was inconclusive: 15.8 µM [inhibitor, partial curve, poor fit]. For Clc1cccc(-c2nnc(-c3ccccc3)o2)c1, the Potency was inconclusive: 14.1 µM [inhibitor, single point]. For Cc1nc2ccccc2nc(C)c1=NOCc1ccc(Cl)cc1Cl, the Potency was inconclusive: 35.5 µM [inhibitor, partial curve, poor fit]. For COc1c(C)cc(C(=O)C2CCCN(Cc3c(C)n(C)n(-c4ccccc4)c3=O)C2)cc1C (stereo not drawn), the Potency was inconclusive: 8.91 µM [activator, partial curve, poor fit]. In the case of Cc1nn(CCCC(=O)Nc2cc(Oc3ccccc3)cc([N+](=O)[O-])c2)c(C)c1[N+](=O)[O-], the Potency is reported as inconclusive: 8.91 µM [inhibitor, partial curve]. For O=C1Nc2ccccc2Oc2cc([N+](=O)[O-])ccc21, the Potency was “inactive”. In the case of O=C(O)COc1ccccc1C(Nc1ccccn1)c1cc(Cl)c2cccnc2c1O (stereo not drawn), the Potency is reported as “inactive”. With CC1CCCCC1NC(=O)/C(C#N)=C/c1ccccc1F (stereo not drawn) the Potency was inconclusive: 17.8 µM [inhibitor, partial curve, poor fit]. With CCCCn1c(N)c(N(Cc2ccccc2OC)C(=O)C(C)Oc2ccc(Cl)cc2)c(=O)[nH]c1=O (stereo not drawn) the Potency was inconclusive: 1.26 µM [inhibitor, full curve]. For O=C(Nc1ccc2c(c1)OCCO2)c1cc(-c2ccccn2)nc2ccc(Br)cc12, the Potency was “inactive”. In the case of O=C(COc1ccc2c3c(c(=O)oc2c1)CCC3)N1CCCC1, the Potency is reported as inconclusive: 35.5 µM [activator, single point]. For O=C(COC(=O)C1COc2ccccc2O1)NC(=O)Nc1ccc2c(c1)OCCO2 (stereo not drawn), the Potency was inconclusive: 12.6 µM [activator, partial curve]. With Oc1ccccc1/C=N/n1c2ccccc2c2ccccc21 the Potency was “inactive”. For O=C(c1cccc(S(=O)(=O)Nc2ccccc2F)c1)N1CCN(c2ccccc2F)CC1, the Potency was inconclusive: 17.8 µM [inhibitor, single point]. For O=C(OCC(=O)N1CCN(c2ccccc2)CC1)c1cccs1, the Potency was inconclusive: 3.55 µM [activator, partial curve, poor fit]. With CCNC(=S)N/N=C/c1cc(C)n(-c2ccc(Cl)cc2)c1C the Potency was inconclusive: 15.8 µM [inhibitor, single point]. In the case of Cc1cc(N/C=C\c2nnnn2-c2ccccc2)no1, the Potency is reported as “inactive”. For Cc1ccc2c(C)c(C(=O)Nc3cccnc3)oc2c1, the Potency was inconclusive: 4.11 µM [inhibitor, single point]. In the case of CCOC(=O)Cc1nnc(NC(=O)C23CC4CC(CC(C4)C2)C3)s1, the Potency is reported as “inactive”. For CCOC(=O)CNC(=O)CSc1nnc(-c2ccccc2)n1Cc1ccco1, the Potency was “inactive”. With Cc1ccc(C)c(-n2nnnc2Sc2nnnn2-c2ccccc2)c1 the Potency was active: 14.6 µM. In the case of COc1cc(CNCCc2c[nH]c3ccccc23)ccc1OCc1ccc(F)cc1, the Potency is reported as inconclusive: 10 µM [inhibitor, partial curve, poor fit]. With CCSc1ncc(Cl)c(C(=O)Nc2ccc(S(=O)(=O)Nc3onc(C)c3C)cc2)n1 the Potency was inconclusive: 25.1 µM [inhibitor, single point]. In the case of Cc1ccc(C(C)(C)C)cc1S(=O)(=O)N1CCC(C(=O)N2CCN(c3ccc(O)cc3)CC2)CC1, the Potency is reported as inconclusive: 25.1 µM [inhibitor, single point]. With CCCCn1c(=NC(=O)c2ccco2)c(C(=O)OCC)cc2c(=O)n3ccccc3nc21 the Potency was inconclusive: 6.51 µM [inhibitor, full curve]. In the case of CCOC(=O)c1cnc2ccc(C)cc2c1NCCO, the Potency is reported as “inactive”. With Cc1cc2oc(=O)cc(CN(C)Cc3ccccc3Cl)c2cc1C the Potency was inconclusive: 8.91 µM [inhibitor, partial curve, poor fit]. For O=C(CCNS(=O)(=O)c1ccc2ccccc2c1)NCCOc1ccccc1, the Potency was inconclusive: 1 µM [inhibitor, partial curve, poor fit]. For Cn1cc(CN2CCCC(C(=O)c3cc(F)ccc3F)C2)c2ccccc21 (stereo not drawn), the Potency was active: 10 µM. In the case of COc1ccc(CCNC(=O)CSc2nc(=O)n3cccc(C)c3n2)cc1OC, the Potency is reported as inconclusive: 8.91 µM [activator, partial curve, poor fit]. For Nc1ccc(N(c2ccccc2)c2ccc(N)cc2)cc1, the Potency was inconclusive: 35.5 µM [inhibitor, partial curve, poor fit]. For CCc1ccc(N2C(=O)C3CCCN3C2=S)cc1 (stereo not drawn), the Potency was “inactive”. For Cc1ccc(CNC(=O)C(=O)NCC2CCCN2S(=O)(=O)c2cc(C)ccc2C)cc1 (stereo not drawn), the Potency was inconclusive: 14.1 µM [inhibitor, single point]. In the case of COc1cccc(NC(=O)Nc2ccc(C(C)(C)C)cc2)c1, the Potency is reported as inconclusive: 35.5 µM [inhibitor, single point]. For COc1ccc(C(=O)OCC(=O)N2CC(=O)Nc3ccccc32)cc1Br, the Potency was “inactive”. For CCn1c(=O)c2cc(C(=O)Nc3cc(F)ccc3F)sc2c2ccccc21, the Potency was “inactive”. In the case of O=C(Nc1ccccc1)c1cnc2n(c1=O)CCS2, the Potency is reported as “inactive”. For Cc1ccc(Cn2nnnc2CN2CCC(n3nnc4cc(C(F)(F)F)ccc43)CC2)cc1, the Potency was inconclusive: 29.1 µM [inhibitor, single point]. In the case of C=CCc1cc(OC)ccc1OCCN(C)Cc1ccccc1, the Potency is reported as inconclusive: 11.2 µM [inhibitor, partial curve, poor fit]. In the case of Cc1cc(C(=O)COC(=O)c2ccc(O)cc2)c(C)n1-c1ccccc1F, the Potency is reported as inconclusive: 15.8 µM [inhibitor, single point].
